Measurements reported in PubChem BioAssay AID1508597 (Cure First, 2020)

- Assay: 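Knock-downs altering ovarian cancer cell survival with or without PARP inhibitor rucaparib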 (primary screen)
- Cell system: human ovarian carcinoma lines grown from tumours: OCI-P5x (papillary serous) and OCI-C5x (clear cell)
- Reagents: siRNA pool against human genes, 1.25 pmol siRNA per well
- Timing: 72 h or 96 h, depending on the cell culture
- Challenge: rucaparib 20 µM (about IC30) or vehicle, present until read-out
- Measurement: 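Luminescent ATP-based viability assay read 72 or 96 h after transfection, depending on culture, given as normalised percent viability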
- Scale: viability, normalised: higher = more viable cells remaining
- Hit rule: 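Active when normalised viability falls below 80 percent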
- Calls: active = viability under 80%; inactive = viability 80% or more
This is one part, drawn at random, of about 2,100 deposited reagents. 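Calls flag viability under 80% in either arm, not effects specific to rucaparib; the reference for percent is not stated.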 Unmarked entries are inactive. Not given: the 100% reference.

| viability, normalised (%) | gene | rucaparib or vehicle | cell line | technical replicate |
| --- | --- | --- | --- | --- |
| 58.6 (active) | CHM (CHM Rab escort protein) | Rucaparib | OCI-C5x (clear cell) | 1 |
| 53.2 (active) | CHM (CHM Rab escort protein) | Rucaparib | OCI-C5x (clear cell) | 2 |
| 44.5 (active) | CHM (CHM Rab escort protein) | Rucaparib | OCI-C5x (clear cell) | 3 |
| 67.5 (active) | CHM (CHM Rab escort protein) | Rucaparib | OCI-P5x (serous) | 1 |
| 70.8 (active) | CHM (CHM Rab escort protein) | Rucaparib | OCI-P5x (serous) | 2 |
| 62.9 (active) | CHM (CHM Rab escort protein) | Rucaparib | OCI-P5x (serous) | 3 |
| 31.4 (active) | CHM (CHM Rab escort protein) | Vehicle | OCI-C5x (clear cell) | 1 |
| 48.4 (active) | CHM (CHM Rab escort protein) | Vehicle | OCI-C5x (clear cell) | 2 |
| 26.7 (active) | CHM (CHM Rab escort protein) | Vehicle | OCI-C5x (clear cell) | 3 |
| 56.1 (active) | CHM (CHM Rab escort protein) | Vehicle | OCI-P5x (serous) | 1 |
| 65.1 (active) | CHM (CHM Rab escort protein) | Vehicle | OCI-P5x (serous) | 2 |
| 62.4 (active) | CHM (CHM Rab escort protein) | Vehicle | OCI-P5x (serous) | 3 |
| 77.6 (active) | MTOR (mechanistic target of rapamycin kinase) | Rucaparib | OCI-C5x (clear cell) | 1 |
| 59 (active) | MTOR (mechanistic target of rapamycin kinase) | Rucaparib | OCI-C5x (clear cell) | 2 |
| 64.5 (active) | MTOR (mechanistic target of rapamycin kinase) | Rucaparib | OCI-C5x (clear cell) | 3 |
| 89.8 | MTOR (mechanistic target of rapamycin kinase) | Rucaparib | OCI-P5x (serous) | 1 |
| 73.7 (active) | MTOR (mechanistic target of rapamycin kinase) | Rucaparib | OCI-P5x (serous) | 2 |
| 67.9 (active) | MTOR (mechanistic target of rapamycin kinase) | Rucaparib | OCI-P5x (serous) | 3 |
| 59.7 (active) | MTOR (mechanistic target of rapamycin kinase) | Vehicle | OCI-C5x (clear cell) | 1 |
| 48.8 (active) | MTOR (mechanistic target of rapamycin kinase) | Vehicle | OCI-C5x (clear cell) | 2 |
| 48.8 (active) | MTOR (mechanistic target of rapamycin kinase) | Vehicle | OCI-C5x (clear cell) | 3 |
| 93.7 | MTOR (mechanistic target of rapamycin kinase) | Vehicle | OCI-P5x (serous) | 1 |
| 85.4 | MTOR (mechanistic target of rapamycin kinase) | Vehicle | OCI-P5x (serous) | 2 |
| 94.7 | MTOR (mechanistic target of rapamycin kinase) | Vehicle | OCI-P5x (serous) | 3 |
| 54.4 (active) | BMX (BMX non-receptor tyrosine kinase) | Rucaparib | OCI-C5x (clear cell) | 1 |
| 58.6 (active) | BMX (BMX non-receptor tyrosine kinase) | Rucaparib | OCI-C5x (clear cell) | 2 |
| 47.5 (active) | BMX (BMX non-receptor tyrosine kinase) | Rucaparib | OCI-C5x (clear cell) | 3 |
| 98.1 | BMX (BMX non-receptor tyrosine kinase) | Rucaparib | OCI-P5x (serous) | 1 |
| 79.2 (active) | BMX (BMX non-receptor tyrosine kinase) | Rucaparib | OCI-P5x (serous) | 2 |
| 79.9 (active) | BMX (BMX non-receptor tyrosine kinase) | Rucaparib | OCI-P5x (serous) | 3 |
| 44.9 (active) | BMX (BMX non-receptor tyrosine kinase) | Vehicle | OCI-C5x (clear cell) | 1 |
| 49.2 (active) | BMX (BMX non-receptor tyrosine kinase) | Vehicle | OCI-C5x (clear cell) | 2 |
| 52.8 (active) | BMX (BMX non-receptor tyrosine kinase) | Vehicle | OCI-C5x (clear cell) | 3 |
| 66.2 (active) | BMX (BMX non-receptor tyrosine kinase) | Vehicle | OCI-P5x (serous) | 1 |
| 59.2 (active) | BMX (BMX non-receptor tyrosine kinase) | Vehicle | OCI-P5x (serous) | 2 |
| 51.2 (active) | BMX (BMX non-receptor tyrosine kinase) | Vehicle | OCI-P5x (serous) | 3 |
| 55.6 (active) | FMR1 (fragile X messenger ribonucleoprotein 1) | Rucaparib | OCI-C5x (clear cell) | 1 |
| 53.3 (active) | FMR1 (fragile X messenger ribonucleoprotein 1) | Rucaparib | OCI-C5x (clear cell) | 2 |
| 55.9 (active) | FMR1 (fragile X messenger ribonucleoprotein 1) | Rucaparib | OCI-C5x (clear cell) | 3 |
| 85.1 | FMR1 (fragile X messenger ribonucleoprotein 1) | Rucaparib | OCI-P5x (serous) | 1 |
| 69.1 (active) | FMR1 (fragile X messenger ribonucleoprotein 1) | Rucaparib | OCI-P5x (serous) | 2 |
| 74.9 (active) | FMR1 (fragile X messenger ribonucleoprotein 1) | Rucaparib | OCI-P5x (serous) | 3 |
| 68 (active) | FMR1 (fragile X messenger ribonucleoprotein 1) | Vehicle | OCI-C5x (clear cell) | 1 |
| 71.4 (active) | FMR1 (fragile X messenger ribonucleoprotein 1) | Vehicle | OCI-C5x (clear cell) | 2 |
| 71 (active) | FMR1 (fragile X messenger ribonucleoprotein 1) | Vehicle | OCI-C5x (clear cell) | 3 |
| 50.1 (active) | FMR1 (fragile X messenger ribonucleoprotein 1) | Vehicle | OCI-P5x (serous) | 1 |
| 74.3 (active) | FMR1 (fragile X messenger ribonucleoprotein 1) | Vehicle | OCI-P5x (serous) | 2 |
| 67 (active) | FMR1 (fragile X messenger ribonucleoprotein 1) | Vehicle | OCI-P5x (serous) | 3 |
| 72.8 (active) | AGK (acylglycerol kinase) | Rucaparib | OCI-C5x (clear cell) | 1 |
| 47.7 (active) | AGK (acylglycerol kinase) | Rucaparib | OCI-C5x (clear cell) | 2 |
| 61.4 (active) | AGK (acylglycerol kinase) | Rucaparib | OCI-C5x (clear cell) | 3 |
| 72.6 (active) | AGK (acylglycerol kinase) | Rucaparib | OCI-P5x (serous) | 1 |
| 54.1 (active) | AGK (acylglycerol kinase) | Rucaparib | OCI-P5x (serous) | 2 |
| 64.3 (active) | AGK (acylglycerol kinase) | Rucaparib | OCI-P5x (serous) | 3 |
| 55.1 (active) | AGK (acylglycerol kinase) | Vehicle | OCI-C5x (clear cell) | 1 |
| 57.7 (active) | AGK (acylglycerol kinase) | Vehicle | OCI-C5x (clear cell) | 2 |
| 66.9 (active) | AGK (acylglycerol kinase) | Vehicle | OCI-C5x (clear cell) | 3 |
| 69.5 (active) | AGK (acylglycerol kinase) | Vehicle | OCI-P5x (serous) | 1 |
| 81 | AGK (acylglycerol kinase) | Vehicle | OCI-P5x (serous) | 2 |
| 75.7 (active) | AGK (acylglycerol kinase) | Vehicle | OCI-P5x (serous) | 3 |

Records listed so far whose target name begins with C or c:
| viability, normalised (%) | gene | rucaparib or vehicle | cell line | technical replicate |
| --- | --- | --- | --- | --- |
| 58.6 (active) | CHM (CHM Rab escort protein) | Rucaparib | OCI-C5x (clear cell) | 1 |
| 53.2 (active) | CHM (CHM Rab escort protein) | Rucaparib | OCI-C5x (clear cell) | 2 |
| 44.5 (active) | CHM (CHM Rab escort protein) | Rucaparib | OCI-C5x (clear cell) | 3 |
| 67.5 (active) | CHM (CHM Rab escort protein) | Rucaparib | OCI-P5x (serous) | 1 |
| 70.8 (active) | CHM (CHM Rab escort protein) | Rucaparib | OCI-P5x (serous) | 2 |
| 62.9 (active) | CHM (CHM Rab escort protein) | Rucaparib | OCI-P5x (serous) | 3 |
| 31.4 (active) | CHM (CHM Rab escort protein) | Vehicle | OCI-C5x (clear cell) | 1 |
| 48.4 (active) | CHM (CHM Rab escort protein) | Vehicle | OCI-C5x (clear cell) | 2 |
| 26.7 (active) | CHM (CHM Rab escort protein) | Vehicle | OCI-C5x (clear cell) | 3 |
| 56.1 (active) | CHM (CHM Rab escort protein) | Vehicle | OCI-P5x (serous) | 1 |
| 65.1 (active) | CHM (CHM Rab escort protein) | Vehicle | OCI-P5x (serous) | 2 |
| 62.4 (active) | CHM (CHM Rab escort protein) | Vehicle | OCI-P5x (serous) | 3 |
